# Data taken from PubChem BioAssay AID504467 (National Center for Advancing Translational Sciences (NCATS), 2011).
# The campaign covered roughly 330,000 compounds. About 7,700 (2.3%) were called active. Inconclusive means that the source gave no clear call. Such entries were picked first, then a sample of the others. The call rests on the fitted dose curve; in most records, active means well fitted inhibition curve with a large enough effect; inconclusive means small, poorly fitted or top-dose-only effect, or effect the other way; inactive means flat fitted curve, though single readings scatter. Potencies of inconclusive entries are doubtful fits and often do not repeat.
# Assay: qHTS screen for small molecules that inhibit ELG1-dependent DNA repair in human embryonic kidney (HEK293T) cells expressing luciferase-tagged ELG1; further: nearly all actives have a fitted effect of over 55% in size
# Conditions: HEK293T ELG1-luciferase reporter, luminescence, 16 h, DNA damage induced by 5-fluorouridine; activity change, negative = inhibition: at 46.1 µM (top of the series)
# In short: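 Reporter activity after DNA damage by 5-fluorouridine is monitored. Compound-treated cells incubate 16 hr at 37 °C, then ONE-Glo is added for 30 min before luminescence reading.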
# On the % scale 0 is the no-effect control and ±100 the full control effect; potency means the concentration at half of the fitted maximal effect.
SMILES,Potency,"activity change, negative = inhibition"
O=C(O)COn1c(-c2ccc(Cl)cc2)nc2ccc(Cl)cc21,"inconclusive: 20.6 µM [activator, partial curve]",
COCCN(CC1CCCN(C2Cc3ccccc3C2)C1)C(=O)CSC (stereo not given),,inactive: -0.724%
CCC(NS(=O)(=O)c1cnn(CC)c1)c1ccccc1 (stereo not given),,inactive: 9.88%
COC(=O)C(Cc1ccc(OC(=O)c2ccc(Cl)cc2)cc1)N1Cc2ccccc2C1=O (stereo not given),"inconclusive: 18.4 µM [activator, partial curve]",
COc1ccc([N+](=O)[O-])cc1NC(=O)CCN1CCOCC1,"inconclusive: 16.4 µM [activator, partial curve, poor fit]",
CC(=O)Nc1ccc(NC(=O)c2ccc(CSc3ccccc3)o2)cc1,"inconclusive: 32.6 µM [inhibitor, partial curve, poor fit]",
CCN(CC)c1ccc(C(=O)c2ccccc2C(=O)O)c(O)c1,"inconclusive: 16.4 µM [activator, single point]",
CCCCNC(=S)NCc1ccc2[nH]c(C)cc2c1,,inactive: 0.584%
COc1ncnc2c1oc1ccccc12,"inconclusive: 16.4 µM [activator, partial curve]",
O=C(CSC1=NCCN1)NC12CC3CC(CC(C3)C1)C2,"inconclusive: 10.3 µM [inhibitor, partial curve, poor fit]",
O=C1c2ccccc2C(=O)N1CCCCN(C(=O)c1cc2ccccc2oc1=O)c1ccc(Cl)cc1,active: 23.1 µM,
CCOC(=O)c1c(NC(=O)CSc2nc3ccccc3c(=O)n2-c2ccccc2)sc(C(C)=O)c1C,"inconclusive: 4.61 µM [inhibitor, full curve]",
S=c1[nH]nc(-c2ccc(Cl)cc2Cl)n1Cc1ccccc1,,inactive: 1.97%
CC(C)C(=O)Nc1nnc(SCC(=O)N2c3ccccc3CC2C)s1 (stereo not given),"inconclusive: 0.731 µM [activator, full curve]",
O=C(O)CC(c1ccc(F)cc1F)N1Cc2ccccc2C1=O (stereo not given),,inactive: 8.67%
Cc1ccc(-n2nc3c(c2NC(=O)c2ccc(F)c(F)c2)CS(=O)(=O)C3)cc1,"inconclusive: 0.184 µM [activator, full curve]",
OCc1csc(=Nc2ccccc2)n1-c1ccccc1,"inconclusive: 32.6 µM [activator, partial curve, poor fit]",
Cc1onc(-c2ccccc2Cl)c1C(=O)N1CCN(Cc2ccc3c(c2)OCO3)CC1,"inconclusive: 18.3 µM [inhibitor, single point]",
COC(=O)CCc1sc(NC2CCCCC2)nc1-c1ccc(OC)cc1,"inconclusive: 0.58 µM [inhibitor, single point]",
Cc1ccc(NC(=O)CCC(=O)c2cccs2)cc1F,,inactive: 5.04%
CCOC(=O)c1c(NC(=S)Nc2ccccc2)sc(C)c1C,"inconclusive: 10.3 µM [activator, partial curve]",
O=C(c1c(O)c2ccccc2oc1=O)C1CCCCC1,,inactive: -7.78%
CSc1ncccc1C(=O)Nc1nc2ccc(F)cc2s1,"inconclusive: 2.31 µM [activator, partial curve, poor fit]",
COc1ccc(C(=O)N2c3ccccc3C(=O)OC2c2ccc3c(c2)OCO3)cc1 (stereo not given),"inconclusive: 18.4 µM [activator, partial curve]",

SMILES,Potency,"activity change, negative = inhibition"
CC1=NN(c2ccc(Br)cc2)C(=O)/C1=C/c1cccs1,"inconclusive: 31.6 µM [activator, single point]",
Cn1c(NC(=O)c2ccc(C(C)(C)C)cc2)cc(=O)n(C)c1=O,"inconclusive: 18.4 µM [activator, single point]",
Cc1ccc(CN2C(=O)C(Cc3ccccc3)Nc3ncnc(N4CCCCC4)c32)cc1 (stereo not given),,inactive: 1.4%
CC1CC(=S)Nc2ccccc2S1 (stereo not given),"inconclusive: 6.51 µM [inhibitor, single point]",
COc1cc(Cl)c(C)cc1NC(=O)c1ccc(NS(=O)(=O)c2ccc(F)c(F)c2)cc1,"inconclusive: 6.51 µM [activator, partial curve, poor fit]",
CC(C)(C)C(=O)Nc1cc2nn(-c3ccccc3)nc2cc1Cl,"inconclusive: 0.184 µM [activator, partial curve]",
NC(=O)CSc1nnc(-c2cccc(S(=O)(=O)N3CCOCC3)c2)n1C1CCCCCC1,,inactive: 5.79%
Cc1cc2ccccc2n1CCNC(=O)C(C)C,,inactive: 19.8%
Cc1ccccc1NC(=O)CSc1nc(COc2ccccc2)nc2ccccc12,active: 25.9 µM,
Cc1nn(-c2ccccc2)c(N2CCCC2)c1/C=N/NC(=O)c1cccc(S(=O)(=O)Nc2ccc(Cl)cc2)c1,"inconclusive: 20.6 µM [inhibitor, partial curve]",
CN(C(=O)c1ccc2c(c1)SC1=NS(=O)(=O)CCN12)C(c1ccccc1)c1ccccc1,active: 25.9 µM,
O=C(O)CSc1nnc(-c2ccc(Cl)cc2Cl)n1-c1ccc(Cl)cc1,"inconclusive: 1.78 µM [activator, single point]",
Nc1ccc2oc(=O)c3ccccc3c2c1,"inconclusive: 13 µM [activator, single point]",
C=CC[C@H](CC(=O)N(CCO)Cc1ccccc1)C(=O)N[C@H](COC(=O)[C@H](CC=C)CC(=O)OC(C)(C)C)Cc1ccccc1,"inconclusive: 18.3 µM [inhibitor, single point]",
CCCC(=O)C1=C(O)C(C(=O)OC)C(C)(C)CC1=Nc1ccc(Br)cc1 (stereo not given),"inconclusive: 29.1 µM [inhibitor, single point]",
Brc1ccccc1C1N=C(c2ccccc2)NO1 (stereo not given),"inconclusive: 16.4 µM [activator, partial curve]",
Cc1ccc(NC(=O)c2nnn(-c3ccc4c(c3)OCCO4)c2N)cc1,"inconclusive: 2.91 µM [activator, partial curve]",
CCSc1ncc(Cl)c(C(=O)Nc2ccc(S(N)(=O)=O)cc2)n1,,inactive: 5.7%
CCc1nnc(NC(=O)C2Cc3ccccc3CN2S(=O)(=O)c2cccs2)s1 (stereo not given),"inconclusive: 0.58 µM [activator, partial curve]",
CC(c1ccccc1)n1c(SCC(=O)N2CC(=O)Nc3ccccc32)nc2ccccc2c1=O (stereo not given),"inconclusive: 29.1 µM [inhibitor, single point]",
Cc1nc(-c2c(-c3ccc(O)cc3O)noc2C(F)(F)F)cs1,"inconclusive: 14.6 µM [inhibitor, single point]",
C=CCn1c(SC(C)C(=O)Nc2ccc(F)c(F)c2F)nnc1C1CC1 (stereo not given),,inactive: 12.9%
Cc1c([N+](=O)[O-])nnn1-c1cc(Cl)cc(Cl)c1,,inactive: -1.51%
O=C(/C=C/c1ccc(O)c(O)c1)c1ccccc1O,"inconclusive: 14.6 µM [activator, partial curve]",

SMILES,Potency,"activity change, negative = inhibition"
CCOC(=O)c1sc(NC(=O)Cc2ccc(C)cc2)nc1C,"inconclusive: 23.1 µM [inhibitor, single point]",
O=C(c1ccccc1)[C@@H]1[C@@H]2C(=O)N(c3ccc(F)cc3)C(=O)[C@@H]2C2CCCN21 (stereo not given in full),"inconclusive: 16.4 µM [activator, single point]",
O=C(O)c1ccc(Nc2nc3ccccc3nc2NS(=O)(=O)c2ccc(F)cc2)cc1,,inactive: 0.145%
Cc1cc(Nc2ccccc2)n(C(=O)c2ccccc2)n1,"inconclusive: 18.4 µM [activator, partial curve]",
Cc1coc2cc3oc(=O)c(CCC(=O)NCC(=O)O)c(C)c3cc12,,inactive: -5.28%
CCOc1ccc(CN(C)c2nc(-c3cccnc3)nc3ccccc23)cc1OC,active: 18.3 µM,
Nc1ccc(-c2nc3ncccc3o2)c(O)c1,"inconclusive: 16.4 µM [activator, partial curve]",
COc1cc2c(cc1OC)CN(CC(=O)Nc1ccccc1C(=O)NCc1ccccc1)CC2,active: 23.1 µM,
Cc1cc(NC(=O)CSc2ccc(-c3ccc4c(c3)OCO4)nn2)no1,,inconclusive: 159% [activator]
CCOC(=O)c1c(NC(=O)COC(=O)CCS(=O)(=O)c2ccc(C)cc2)sc(C)c1C,"inconclusive: 20.6 µM [activator, single point]",
COc1ccccc1NC(=O)NCC1(N(C)C)CCCCC1,,inactive: 10.9%
O=C(Nc1ccccc1)C1CCCN1S(=O)(=O)c1ccc(Br)cc1 (stereo not given),,inactive: 2.33%
O=C(Nc1ccc(CN2CCCCC2)cc1)c1ccc2c(c1)OCO2,"inconclusive: 12.6 µM [activator, single point]",
Cn1c(=O)c2c(nc(CN3CCc4ccccc4C3)n2Cc2ccccc2F)n(C)c1=O,"inconclusive: 4.11 µM [inhibitor, partial curve]",
COc1ccc(/C(C)=N/OC/C(O)=C(\C#N)c2nc3ccccc3[nH]2)cc1OC,,inactive: -0.407%
O=C(c1cccc(F)c1)N1CCC(c2nc3ccccc3s2)CC1,"inconclusive: 29.1 µM [inhibitor, single point]",
Cn1cccc1-c1nc2ccc(NC(=O)c3ccco3)cc2[nH]1,"inconclusive: 23.1 µM [activator, single point]",
Cn1cc(C(=O)NS(=O)(=O)Nc2ccc(Br)cn2)c2ccccc21,"inconclusive: 18.3 µM [activator, partial curve]",
Cc1nn2c(NCc3ccccn3)cc(C(C)(C)C)nc2c1-c1ccccc1,"inconclusive: 6.51 µM [inhibitor, full curve]",
Cc1ccc(CNC(=O)C2CCC(CNc3nc(=S)[nH]c4ccccc34)CC2)cc1 (stereo not given),,inactive: -15.6%
Oc1c(Br)cc(Br)cc1C=Nc1ccc2[nH]ncc2c1,"inconclusive: 23.1 µM [inhibitor, partial curve, poor fit]",
Cc1nc(-c2ccc3c(c2)OCCO3)cs1,"inconclusive: 18.3 µM [activator, partial curve]",

# Sorted by count of non-hydrogen atoms (high to low): part of the list above
SMILES,Potency,"activity change, negative = inhibition"
Cn1c(=O)c2c(nc(CN3CCc4ccccc4C3)n2Cc2ccccc2F)n(C)c1=O,"inconclusive: 4.11 µM [inhibitor, partial curve]",
CCOC(=O)c1c(NC(=O)COC(=O)CCS(=O)(=O)c2ccc(C)cc2)sc(C)c1C,"inconclusive: 20.6 µM [activator, single point]",
CCOc1ccc(CN(C)c2nc(-c3cccnc3)nc3ccccc23)cc1OC,active: 18.3 µM,

# Nothing new here: entries from further up.
SMILES,Potency,"activity change, negative = inhibition"
OCc1csc(=Nc2ccccc2)n1-c1ccccc1,"inconclusive: 32.6 µM [activator, partial curve, poor fit]",
Cc1onc(-c2ccccc2Cl)c1C(=O)N1CCN(Cc2ccc3c(c2)OCO3)CC1,"inconclusive: 18.3 µM [inhibitor, single point]",
